Results are given in words; binding and its absence hold for the method and conditions named. Binding seen in cells or lysates may run through a third protein. Tags and fused reporters may be left off the sequences shown.
Molecular target: T1, LEPROTL1-HA (human) (UniProt O95214)
T1 sequence: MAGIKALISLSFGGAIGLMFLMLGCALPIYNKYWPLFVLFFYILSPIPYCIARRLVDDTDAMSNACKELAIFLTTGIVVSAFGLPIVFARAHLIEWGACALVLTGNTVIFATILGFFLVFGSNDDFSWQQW
Experiment: co-IP

cathepsin D (from UniProt P07339) (enzyme)
binding: no binding
